Experimental data from patent US9635857B2, “Tetrazolinone compound and use thereof” (SUMITOMO CHEMICAL COMPANY, LIMITED, priority 2013, dated 2017).
Some results were stated once for a whole list of compounds, not compound by compound. At least one structure is not confirmed: it was looked up by name or label, or the drawing left a doubt.

Key:
Format in all cases: in vivo
[1] = tested on: barley net blotch fungus (Pyrenophora teres); experiment: Test Example 3: barley net blotch control, foliar spray on barley; conditions: 500 ppm sprayed on barley (NISHINOHOSHI); inoculated after 2 days; assessed after 3 + 7 days
[2] = tested on: rice blast fungus (Magnaporthe grisea); conditions: 500 ppm water dilution sprayed on rice (NIHONBARE); 6 days in contact with infected seedling
[3] = tested on: wheat rust fungus (Puccinia recondita); experiment: Test Example 2: wheat rust control, foliar spray on wheat; conditions: 500 ppm sprayed on wheat (SHIROGANE); inoculated 5 days after spraying; assessed after 1 + 8 days

Compound | area of lesion on the treated plant relative to that on an untreated plant [1] | lesion area on the treated plant with respect to the lesion area on the non-treated plant [2] | area of lesion on the treated plant relative to that on an untreated plant [3]
Cc1cccc(-n2nnn(C)c2=O)c1COc1cccc(Oc2ccccc2)c1 [compound 1] | ≤ 30% | – | –
COc1cccc(-n2nnn(C)c2=O)c1COc1cc(Oc2ccccc2)ccc1C [compound 2] | ≤ 30% | – | –
Cc1cccc(-n2nnn(C)c2=O)c1COc1cccc(C(=O)c2ccccc2)c1 [compound 3] | ≤ 30% | – | –
CON=C(C)c1cccc(OCc2c(C)cccc2-n2nnn(C)c2=O)c1 [compound 4] | ≤ 30% | – | –
CON=C(C)c1cccc(OCc2c(OC)cccc2-n2nnn(C)c2=O)c1 [compound 5] | ≤ 30% | – | –
CON=C(C)c1cccc(OCc2c(C3CC3)cccc2-n2nnn(C)c2=O)c1 [compound 6] | ≤ 30% | – | –
CON=C(C)c1ccc(C)c(OCc2c(C)cccc2-n2nnn(C)c2=O)c1 [compound 7] | ≤ 30% | ≤ 30% | –
CON=C(C)c1ccc(C)c(OCc2c(OC)cccc2-n2nnn(C)c2=O)c1 [compound 8] | ≤ 30% | – | –
CON=C(C)c1ccc(C)c(OCc2c(C3CC3)cccc2-n2nnn(C)c2=O)c1 [compound 9] | ≤ 30% | – | –
CC(=NOc1ccccc1)c1cccc(OCc2c(C)cccc2-n2nnn(C)c2=O)c1 [compound 10] | ≤ 30% | – | –
CC(=NOCc1ccccc1)c1cccc(OCc2c(C)cccc2-n2nnn(C)c2=O)c1 [compound 11] | ≤ 30% | – | –
CCON=C(C)c1cccc(OCc2c(C)cccc2-n2nnn(C)c2=O)c1 [compound 12] | ≤ 30% | – | –
C=CCON=C(C)c1cccc(OCc2c(C)cccc2-n2nnn(C)c2=O)c1 [compound 13] | ≤ 30% | ≤ 30% | ≤ 30%
CC(=NOC(C)(C)C)c1cccc(OCc2c(C)cccc2-n2nnn(C)c2=O)c1 [compound 14] | ≤ 30% | – | –
CC(=NOCc1ccccc1C(F)(F)F)c1cccc(OCc2c(C)cccc2-n2nnn(C)c2=O)c1 [compound 15] | ≤ 30% | – | –
CC(=NOCCc1ccccc1)c1cccc(OCc2c(C)cccc2-n2nnn(C)c2=O)c1 [compound 16] | ≤ 30% | – | –
CCCON=C(C)c1cccc(OCc2c(C)cccc2-n2nnn(C)c2=O)c1 [compound 18] | ≤ 30% | – | –
CCON=C(C)c1ccc(C)c(OCc2c(C)cccc2-n2nnn(C)c2=O)c1 [compound 19] | ≤ 30% | – | –
CC(=NOCc1ccccc1)c1ccc(C)c(OCc2c(C)cccc2-n2nnn(C)c2=O)c1 [compound 20] | ≤ 30% | – | –
C=CCON=C(C)c1ccc(C)c(OCc2c(C)cccc2-n2nnn(C)c2=O)c1 [compound 21] | ≤ 30% | – | ≤ 30%
CC(=NOC(C)(C)C)c1ccc(C)c(OCc2c(C)cccc2-n2nnn(C)c2=O)c1 [compound 22] | ≤ 30% | – | ≤ 30%

Compound | area of lesion on the treated plant relative to that on an untreated plant [1] | lesion area on the treated plant with respect to the lesion area on the non-treated plant [2] | area of lesion on the treated plant relative to that on an untreated plant [3]
CON=C(c1ccccc1)c1cccc(OCc2c(C)cccc2-n2nnn(C)c2=O)c1 [compound 23] | ≤ 30% | – | –
CCON=C(c1ccccc1)c1cccc(OCc2c(C)cccc2-n2nnn(C)c2=O)c1 [compound 24] | ≤ 30% | – | –
C=CCON=C(c1ccccc1)c1cccc(OCc2c(C)cccc2-n2nnn(C)c2=O)c1 [compound 25] | ≤ 30% | – | –
CCC(=NOC)c1cccc(OCc2c(C)cccc2-n2nnn(C)c2=O)c1 [compound 26] | ≤ 30% | – | –
CCC(=NOC)c1cccc(OCc2c(OC)cccc2-n2nnn(C)c2=O)c1 [compound 27] | ≤ 30% | – | –
CCCCC(=NOC)c1cccc(OCc2c(C3CC3)cccc2-n2nnn(C)c2=O)c1 [compound 28] | ≤ 30% | – | –
CCC(=NOC)c1cccc(OCc2c(C3CC3)cccc2-n2nnn(C)c2=O)c1 [compound 29] | ≤ 30% | – | –
C#CCON=C(C)c1cccc(OCc2c(C)cccc2-n2nnn(C)c2=O)c1 [compound 32] | ≤ 30% | – | –
Cc1cccc(-n2nnn(C)c2=O)c1COc1cccc(N(C)c2ccccc2)c1 [compound 33] | ≤ 30% | – | –
Cc1cccc(-n2nnn(C)c2=O)c1COc1cccc(Oc2ccccc2)n1 [compound 34] | ≤ 30% | – | –
Cc1cccc(-n2nnn(C)c2=O)c1COc1cccc(Oc2ccccc2F)n1 [compound 35] | ≤ 30% | – | –
Cc1cccc(Oc2cccc(OCc3c(C)cccc3-n3nnn(C)c3=O)n2)n1 [compound 36] | ≤ 30% | – | –
Cc1cccc(-n2nnn(C)c2=O)c1COc1cccc(OCc2ccccc2)c1 [compound 37] | ≤ 30% | – | ≤ 30%
Cc1cccc(-n2nnn(C)c2=O)c1COc1cccc(OCc2ccc(Cl)cc2)c1 [compound 38] | ≤ 30% | – | –
COc1cccc(COc2cccc(OCc3c(C)cccc3-n3nnn(C)c3=O)c2)c1 [compound 39] | ≤ 30% | – | –
COc1ccccc1COc1cccc(OCc2c(C)cccc2-n2nnn(C)c2=O)c1 [compound 40] | ≤ 30% | ≤ 30% | –
Cc1cccc(-n2nnn(C)c2=O)c1COc1cccc(OCC2CCCCC2)c1 [compound 41] | ≤ 30% | – | –
Cc1cccc(-n2nnn(C)c2=O)c1COc1cccc(OC2CCCC2)c1 [compound 42] | ≤ 30% | – | –
Cc1cccc(-n2nnn(C)c2=O)c1COc1cccc(OC(C)c2ccc(Cl)cc2)c1 (centres unmarked) [compound 43] | ≤ 30% | – | ≤ 30%
CON=C(C)c1cccc(OCc2c(C)cccc2-n2nnn(C)c2=O)n1 [compound 44] | ≤ 30% | ≤ 30% | –
